From the supplement of paper PMC7666118
The list shows a part of the results.

Amino acid sequences for entries named in this document (tags omitted). A change or cut given only in a name is not applied to a line headed by its entry.
UniProt Q04726: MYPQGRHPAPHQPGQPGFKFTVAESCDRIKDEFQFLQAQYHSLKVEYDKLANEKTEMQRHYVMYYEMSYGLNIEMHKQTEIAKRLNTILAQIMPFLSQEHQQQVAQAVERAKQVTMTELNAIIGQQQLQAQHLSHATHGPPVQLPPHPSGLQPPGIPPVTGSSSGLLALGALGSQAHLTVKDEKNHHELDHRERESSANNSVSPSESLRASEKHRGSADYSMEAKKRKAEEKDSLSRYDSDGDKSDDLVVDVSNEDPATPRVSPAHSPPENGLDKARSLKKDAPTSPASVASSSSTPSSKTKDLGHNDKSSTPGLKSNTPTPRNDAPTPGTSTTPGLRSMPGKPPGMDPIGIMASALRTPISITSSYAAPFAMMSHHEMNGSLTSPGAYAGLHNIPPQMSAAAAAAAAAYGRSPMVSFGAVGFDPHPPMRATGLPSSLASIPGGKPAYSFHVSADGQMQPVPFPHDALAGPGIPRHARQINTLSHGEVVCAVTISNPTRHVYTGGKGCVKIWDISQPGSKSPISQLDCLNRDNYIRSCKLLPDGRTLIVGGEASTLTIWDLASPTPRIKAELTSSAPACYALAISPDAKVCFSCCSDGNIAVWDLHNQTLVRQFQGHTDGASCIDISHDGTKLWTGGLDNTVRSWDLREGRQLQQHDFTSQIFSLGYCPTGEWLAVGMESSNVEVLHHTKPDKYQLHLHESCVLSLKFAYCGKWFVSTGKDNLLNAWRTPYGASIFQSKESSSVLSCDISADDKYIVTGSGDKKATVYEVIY
UniProt Q92544: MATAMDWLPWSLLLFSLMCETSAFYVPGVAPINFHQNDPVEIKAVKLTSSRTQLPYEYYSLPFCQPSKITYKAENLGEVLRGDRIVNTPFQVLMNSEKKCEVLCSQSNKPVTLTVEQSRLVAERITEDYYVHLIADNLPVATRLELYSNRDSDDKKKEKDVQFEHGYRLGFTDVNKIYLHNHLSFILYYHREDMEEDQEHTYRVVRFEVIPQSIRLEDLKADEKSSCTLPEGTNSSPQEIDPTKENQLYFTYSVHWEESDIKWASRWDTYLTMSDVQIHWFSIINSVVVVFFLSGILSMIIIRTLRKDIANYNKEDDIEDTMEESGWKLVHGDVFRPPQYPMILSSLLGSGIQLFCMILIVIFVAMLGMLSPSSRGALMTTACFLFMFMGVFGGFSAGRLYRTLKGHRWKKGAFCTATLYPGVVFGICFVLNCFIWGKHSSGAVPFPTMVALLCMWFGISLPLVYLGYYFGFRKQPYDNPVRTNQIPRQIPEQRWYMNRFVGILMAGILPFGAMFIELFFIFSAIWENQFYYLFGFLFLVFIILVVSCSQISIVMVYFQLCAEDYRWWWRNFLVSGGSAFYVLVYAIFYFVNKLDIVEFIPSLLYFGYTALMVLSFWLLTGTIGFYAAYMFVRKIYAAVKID
UniProt P62072: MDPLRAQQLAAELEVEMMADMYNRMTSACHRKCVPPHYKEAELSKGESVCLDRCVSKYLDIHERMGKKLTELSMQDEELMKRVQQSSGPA
UniProt Q96I45: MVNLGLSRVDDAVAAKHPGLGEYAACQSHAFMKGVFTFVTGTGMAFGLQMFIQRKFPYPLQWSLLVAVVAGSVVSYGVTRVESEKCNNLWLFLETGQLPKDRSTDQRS
UniProt Q8IXH7, whole entry: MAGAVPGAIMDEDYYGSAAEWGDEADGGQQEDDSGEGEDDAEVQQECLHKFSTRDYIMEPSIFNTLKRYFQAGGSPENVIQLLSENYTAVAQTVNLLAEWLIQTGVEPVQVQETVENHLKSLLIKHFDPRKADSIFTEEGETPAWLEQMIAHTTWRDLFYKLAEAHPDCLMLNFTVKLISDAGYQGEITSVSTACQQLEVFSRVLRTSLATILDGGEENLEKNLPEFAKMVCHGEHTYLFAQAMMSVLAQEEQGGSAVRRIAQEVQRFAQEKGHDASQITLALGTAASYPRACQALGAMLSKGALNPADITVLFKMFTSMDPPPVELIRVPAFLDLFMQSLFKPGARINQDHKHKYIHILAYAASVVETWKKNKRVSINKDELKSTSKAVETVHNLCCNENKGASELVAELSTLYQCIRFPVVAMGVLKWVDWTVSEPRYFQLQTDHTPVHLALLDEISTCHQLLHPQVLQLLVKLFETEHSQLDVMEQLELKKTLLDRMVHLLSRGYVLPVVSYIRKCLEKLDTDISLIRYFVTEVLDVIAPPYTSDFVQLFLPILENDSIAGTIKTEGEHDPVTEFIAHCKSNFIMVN
UniProt O60220: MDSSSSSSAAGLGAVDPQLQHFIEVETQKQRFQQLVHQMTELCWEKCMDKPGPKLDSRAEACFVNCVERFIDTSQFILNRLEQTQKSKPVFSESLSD
UniProt Q9NU19: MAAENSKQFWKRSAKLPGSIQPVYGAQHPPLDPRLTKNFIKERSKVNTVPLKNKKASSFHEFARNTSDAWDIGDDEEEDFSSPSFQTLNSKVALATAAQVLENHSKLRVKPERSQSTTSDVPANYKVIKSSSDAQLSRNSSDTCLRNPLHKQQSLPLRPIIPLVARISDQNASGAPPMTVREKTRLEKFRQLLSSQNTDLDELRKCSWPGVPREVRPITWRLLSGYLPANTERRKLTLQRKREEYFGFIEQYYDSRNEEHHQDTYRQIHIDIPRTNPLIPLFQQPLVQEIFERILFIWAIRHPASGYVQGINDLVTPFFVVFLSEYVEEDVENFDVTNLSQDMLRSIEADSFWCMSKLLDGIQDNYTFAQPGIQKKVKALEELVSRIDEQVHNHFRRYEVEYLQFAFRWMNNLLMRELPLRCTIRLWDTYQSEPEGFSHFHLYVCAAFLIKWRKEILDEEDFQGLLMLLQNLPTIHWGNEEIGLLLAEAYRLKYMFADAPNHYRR
UniProt Q53FA7: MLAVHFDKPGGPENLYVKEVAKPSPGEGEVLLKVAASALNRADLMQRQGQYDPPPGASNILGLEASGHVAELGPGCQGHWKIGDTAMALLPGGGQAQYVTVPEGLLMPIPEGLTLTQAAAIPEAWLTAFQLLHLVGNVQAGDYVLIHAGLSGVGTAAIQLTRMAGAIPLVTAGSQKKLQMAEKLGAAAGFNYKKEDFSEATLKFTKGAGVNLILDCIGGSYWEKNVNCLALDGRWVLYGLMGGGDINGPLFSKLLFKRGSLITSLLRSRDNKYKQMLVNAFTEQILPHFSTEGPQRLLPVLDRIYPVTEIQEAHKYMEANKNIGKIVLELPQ
UniProt P11387: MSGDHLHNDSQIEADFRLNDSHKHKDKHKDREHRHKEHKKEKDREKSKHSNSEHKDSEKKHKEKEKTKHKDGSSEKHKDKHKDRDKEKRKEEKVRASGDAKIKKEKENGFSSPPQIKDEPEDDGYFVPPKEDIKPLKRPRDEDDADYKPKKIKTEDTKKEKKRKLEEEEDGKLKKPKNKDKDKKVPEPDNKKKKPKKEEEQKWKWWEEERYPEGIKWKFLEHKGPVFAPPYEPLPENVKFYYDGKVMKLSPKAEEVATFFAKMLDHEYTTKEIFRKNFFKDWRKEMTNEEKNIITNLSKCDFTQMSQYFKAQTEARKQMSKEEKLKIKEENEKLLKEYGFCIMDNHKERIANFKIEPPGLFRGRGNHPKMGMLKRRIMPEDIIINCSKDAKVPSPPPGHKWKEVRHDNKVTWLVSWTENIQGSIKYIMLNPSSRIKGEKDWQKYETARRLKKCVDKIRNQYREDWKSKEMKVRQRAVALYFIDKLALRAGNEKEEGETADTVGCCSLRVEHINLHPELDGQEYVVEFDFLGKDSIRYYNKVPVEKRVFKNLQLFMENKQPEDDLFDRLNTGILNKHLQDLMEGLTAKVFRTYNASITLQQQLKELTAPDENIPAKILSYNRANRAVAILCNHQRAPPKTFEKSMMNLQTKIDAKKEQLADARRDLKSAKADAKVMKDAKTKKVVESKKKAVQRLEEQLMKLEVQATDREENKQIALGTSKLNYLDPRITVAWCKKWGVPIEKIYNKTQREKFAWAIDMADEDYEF
UniProt Q13445: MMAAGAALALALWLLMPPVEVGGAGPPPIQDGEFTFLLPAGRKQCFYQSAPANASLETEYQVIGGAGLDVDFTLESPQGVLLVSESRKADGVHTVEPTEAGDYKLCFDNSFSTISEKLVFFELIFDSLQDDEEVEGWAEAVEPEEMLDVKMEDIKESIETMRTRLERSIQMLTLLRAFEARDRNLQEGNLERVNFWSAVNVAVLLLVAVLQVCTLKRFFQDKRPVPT
UniProt Q9UBB9: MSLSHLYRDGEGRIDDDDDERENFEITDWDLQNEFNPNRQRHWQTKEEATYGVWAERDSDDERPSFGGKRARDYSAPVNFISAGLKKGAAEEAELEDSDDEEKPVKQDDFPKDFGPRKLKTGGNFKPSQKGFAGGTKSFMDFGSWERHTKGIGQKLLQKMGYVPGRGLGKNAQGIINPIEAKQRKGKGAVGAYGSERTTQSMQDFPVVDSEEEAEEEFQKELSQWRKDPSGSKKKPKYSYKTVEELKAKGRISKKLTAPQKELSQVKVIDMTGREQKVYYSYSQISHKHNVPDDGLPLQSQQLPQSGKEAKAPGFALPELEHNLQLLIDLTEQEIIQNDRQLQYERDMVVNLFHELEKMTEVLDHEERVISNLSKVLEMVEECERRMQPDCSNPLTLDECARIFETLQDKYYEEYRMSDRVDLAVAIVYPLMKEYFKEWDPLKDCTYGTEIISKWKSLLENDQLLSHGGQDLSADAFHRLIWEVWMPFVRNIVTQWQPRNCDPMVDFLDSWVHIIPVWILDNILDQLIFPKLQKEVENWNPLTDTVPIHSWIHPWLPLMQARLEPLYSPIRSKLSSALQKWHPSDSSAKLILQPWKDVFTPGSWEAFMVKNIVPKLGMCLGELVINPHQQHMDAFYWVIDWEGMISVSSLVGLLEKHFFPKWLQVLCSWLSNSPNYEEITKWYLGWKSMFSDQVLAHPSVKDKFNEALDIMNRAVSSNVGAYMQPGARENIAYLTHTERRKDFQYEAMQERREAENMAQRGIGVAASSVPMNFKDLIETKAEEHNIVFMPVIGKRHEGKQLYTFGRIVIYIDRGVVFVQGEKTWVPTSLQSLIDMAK
UniProt Q15388, whole entry: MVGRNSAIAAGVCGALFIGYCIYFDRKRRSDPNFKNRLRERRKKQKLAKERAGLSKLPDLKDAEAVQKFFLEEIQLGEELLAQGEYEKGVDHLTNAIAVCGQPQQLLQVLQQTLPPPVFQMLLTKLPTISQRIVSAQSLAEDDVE
UniProt Q9BVW5: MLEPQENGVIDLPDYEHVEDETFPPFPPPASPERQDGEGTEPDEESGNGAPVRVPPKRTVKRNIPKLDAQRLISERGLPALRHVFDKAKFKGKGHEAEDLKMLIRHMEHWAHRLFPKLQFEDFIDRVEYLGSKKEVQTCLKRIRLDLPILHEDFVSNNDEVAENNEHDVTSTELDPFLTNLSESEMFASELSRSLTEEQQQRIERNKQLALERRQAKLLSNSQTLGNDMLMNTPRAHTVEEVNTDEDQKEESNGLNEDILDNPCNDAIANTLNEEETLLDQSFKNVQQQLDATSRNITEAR
UniProt Q5T3F8: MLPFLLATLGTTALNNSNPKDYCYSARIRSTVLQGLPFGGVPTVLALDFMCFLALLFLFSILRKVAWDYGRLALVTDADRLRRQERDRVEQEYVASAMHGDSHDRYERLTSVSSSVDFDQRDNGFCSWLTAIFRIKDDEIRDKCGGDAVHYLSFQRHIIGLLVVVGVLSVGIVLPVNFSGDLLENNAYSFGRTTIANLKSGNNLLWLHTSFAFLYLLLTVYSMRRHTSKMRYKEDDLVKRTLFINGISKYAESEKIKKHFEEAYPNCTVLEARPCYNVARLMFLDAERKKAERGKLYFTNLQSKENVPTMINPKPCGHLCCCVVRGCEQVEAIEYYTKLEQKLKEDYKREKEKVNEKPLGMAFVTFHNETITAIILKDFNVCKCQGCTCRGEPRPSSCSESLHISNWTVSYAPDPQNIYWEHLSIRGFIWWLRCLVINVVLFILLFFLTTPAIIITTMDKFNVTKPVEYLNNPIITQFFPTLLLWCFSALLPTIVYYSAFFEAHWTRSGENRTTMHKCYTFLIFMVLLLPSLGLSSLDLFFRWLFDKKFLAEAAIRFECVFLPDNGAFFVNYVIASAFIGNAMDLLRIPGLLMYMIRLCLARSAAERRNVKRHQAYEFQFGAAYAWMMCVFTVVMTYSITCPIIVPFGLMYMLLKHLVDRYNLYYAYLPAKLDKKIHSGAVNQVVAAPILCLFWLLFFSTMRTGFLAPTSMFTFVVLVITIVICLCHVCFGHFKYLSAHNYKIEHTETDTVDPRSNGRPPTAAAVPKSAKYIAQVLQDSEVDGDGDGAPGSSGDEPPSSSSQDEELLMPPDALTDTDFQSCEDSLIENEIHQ
UniProt Q01664: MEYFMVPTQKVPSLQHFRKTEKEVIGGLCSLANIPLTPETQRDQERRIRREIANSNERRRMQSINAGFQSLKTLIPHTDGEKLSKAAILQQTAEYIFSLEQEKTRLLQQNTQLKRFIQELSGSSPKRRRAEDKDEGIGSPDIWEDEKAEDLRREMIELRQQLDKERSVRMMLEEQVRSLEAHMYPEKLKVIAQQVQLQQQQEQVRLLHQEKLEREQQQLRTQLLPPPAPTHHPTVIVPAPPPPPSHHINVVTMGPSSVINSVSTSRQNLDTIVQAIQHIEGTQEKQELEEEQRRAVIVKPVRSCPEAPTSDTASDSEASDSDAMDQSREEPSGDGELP

Compound: COc1ccc(Cn2ccc3ccc(C(=O)NO)cc32)cc1
Assay: dose-dependent thermal stabilisation call (2D-TPP, DLPTP, 10% FDR) (binary (1 = stabilised)); higher = stabilised by the compound
Settings: system: HL-60 intact cells; concentration range 0.04-10 µM

Row | Target | dose-dependent thermal stabilisation call
1 | TBP (UniProt P20226) | inactive: 0
2 | TLE3 (UniProt Q04726) | inactive: 0
3 | TM9SF4 (UniProt Q92544) | inactive: 0
4 | TMEM19 (UniProt Q96HH6) | active: 1
5 | TIMM10 (UniProt P62072) | inactive: 0
6 | TANK (UniProt Q92844) | inactive: 0
7 | TMEM141 (UniProt Q96I45) | inactive: 0
8 | TH1L (UniProt Q8IXH7) | inactive: 0
9 | TIMM8A (UniProt O60220) | inactive: 0
10 | TMEM68 (UniProt Q96MH6) | inactive: 0
11 | TBC1D22B (UniProt Q9NU19) | inactive: 0
12 | TP53I3 (UniProt Q53FA7) | inactive: 0
13 | TAF8 (UniProt Q7Z7C8) | inactive: 0
14 | TOP1 (UniProt P11387) | inactive: 0
15 | TMEM102 (UniProt Q8N9M5) | inactive: 0
16 | TMEM56 (UniProt Q96MV1) | inactive: 0
17 | TBC1D15 (UniProt Q8TC07) | inactive: 0
18 | TOP3A (UniProt Q13472) | inactive: 0
19 | TMED1 (UniProt Q13445) | inactive: 0

Some of the entries so far, in markdown:

| Row | Target | dose-dependent thermal stabilisation call |
| --- | --- | --- |
| 10 | TMEM68 (UniProt Q96MH6) | inactive: 0 |
| 11 | TBC1D22B (UniProt Q9NU19) | inactive: 0 |

(further entries)

Row | Target | dose-dependent thermal stabilisation call
20 | TFIP11 (UniProt Q9UBB9) | inactive: 0
21 | TMED4 (UniProt Q7Z7H5) | inactive: 0
22 | TOMM20 (UniProt Q15388) | inactive: 0
23 | TBC1D13 (UniProt Q9NVG8) | inactive: 0
24 | TOP3B (UniProt O95985) | inactive: 0
25 | TMBIM6 (UniProt P55061) | inactive: 0
26 | TCP1 (UniProt P17987) | inactive: 0
27 | TMEM59 (UniProt Q9BXS4) | inactive: 0
28 | TGFBRAP1 (UniProt Q8WUH2) | inactive: 0
29 | TMEM206 (UniProt Q9H813) | inactive: 0
30 | TOR1B (UniProt O14657) | inactive: 0
31 | TGOLN2 (UniProt O43493) | inactive: 0
32 | TES (UniProt Q9UGI8) | inactive: 0
33 | TIPIN (UniProt Q9BVW5) | inactive: 0
34 | TMEM63B (UniProt Q5T3F8) | inactive: 0
35 | TMED8 (UniProt Q6PL24) | inactive: 0
36 | TERF2IP (UniProt Q9NYB0) | inactive: 0
37 | TFAP4 (UniProt Q01664) | inactive: 0
